Experimental data: PubChem BioAssay AID652259 (Drosophila RNAi Screening Center, 2013)

- Screen: 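Genome-wide hunt for genes that control Wingless pathway activity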 (primary screen)
- Cell system: Drosophila clone 8 imaginal disc epithelial cells
- Reagents: long dsRNA against Drosophila genes
- Challenge: pathway stimulated by co-transfected Wingless expression plasmid
- Detection: 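Dual luciferase reads per well after Wingless plasmid stimulation: reporter firefly light and Renilla control light; activity is firefly divided by Renilla, a ratio not deposited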
- Reading the numbers: firefly reporter light: higher = more Wg reporter light, before normalisation; Renilla control light: higher = more transfected or surviving cells
- Hit rule: 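Strong candidates differ from their plate mean by at least two out of four per-plate statistical tests; weak candidates meet just one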
- Meaning of the calls: active = candidate regulator (raises or lowers reporter); inactive = not a candidate
In all, the deposit lists about 22,000 reagents; this is a random part of those with a known target gene and a result. Of all reagents, 233 (1.1%) got an active call. 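Light values are raw, unnormalised plate reads; the ratio scores behind the reporter calls were not deposited.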 Unmarked entries are inactive. No sequences are given here. The record does not give: the amount of reagent, the time to read-out, the dose of the treatment.

Target gene | amplicon | firefly reporter light, replicate 1 | firefly reporter light, replicate 2 | Renilla control light, replicate 1 | Renilla control light, replicate 2
Gr59b (Gustatory receptor 59b) | DRSC04179 | 2428 | 7508 | 997 | 3169
CG32110 | DRSC09220 | 2486 | – | 1322 | –
CG11898 | DRSC14432 | 12358 | 6.11e5 | 4345 | 3.23e5
CG12081 | DRSC17802 | 1353 | 5105 | 736 | 1808
Hr78 (Hormone-receptor-like in 78) | DRSC11866 | 5139 | – | 2232 | –
spel1 (spellchecker1) | DRSC03617 | 2880 | 8123 | 1291 | 3952
CG6675 | DRSC03735 | 3819 | 5925 | 1344 | 2208
CG14071 | DRSC02374 | 2819 | 5218 | 889 | 3062
CG4119 | DRSC17741 | 3040 | 11704 | 1376 | 3121
alka (alkaliphile) | DRSC06136 | 3491 | 8203 | 793 | 2440
Regnase-1 (Regnase 1) | DRSC14278 | 2864 | 6317 | 1048 | 1616
kraken | DRSC00824 | 3783 | 11298 | 1077 | 3309
CG8204 | DRSC07106 | 6507 | – | 2604 | –
Sec24AB (Secretory 24AB) | DRSC06478 | 11184 | – | 2557 | –
CG2533 | DRSC19855 | 26325 | – | 16048 | –
Ir94c (Ionotropic receptor 94c) | DRSC13539 | 3024 | – | 1616 | –
CG6712 | DRSC02981 | 25361 | 7.03e5 | 9092 | 3.52e5
CG6712 | DRSC21690 | 4.86e5 | 4.83e5 | 2.70e5 | 2.37e5
Vm32E (Vitelline membrane 32E) | DRSC03474 | 2876 | 5338 | 953 | 1985
ECSIT | DRSC12348 | 13389 | – | 3112 | –
CG14454 | DRSC11711 | 19904 | – | 3453 | –
Ask1 (Apoptotic signal-regulating kinase 1) | DRSC16789 | 21479 | – | 4795 | –
Ask1 (Apoptotic signal-regulating kinase 1) | DRSC21697 | 7.52e5 | 8.60e5 | 5.12e5 | 3.58e5
Clc (Clathrin light chain) | DRSC11116 | 3845 | – | 1275 | –
PGRP-SA (Peptidoglycan recognition protein SA) | DRSC19420 | 23850 | – | 8422 | –
CG30391 | DRSC21572 | 5.31e5 | 5.42e5 | 2.18e5 | 1.76e5
GlyT (Glycine transporter) | DRSC04512 | 2038 | 4747 | 659 | 1729
cnir (cornichon related) | DRSC00499 | 4748 | 10000 | 1524 | 4800
CG32448 | DRSC22657 | 6.41e5 | 5.80e5 | 2.32e5 | 140
CG14218 | DRSC19575 | 20833 | – | 10802 | –
CG18853 | DRSC06795 | 3261 | 5531 | 208 | 3060

Next part, starting with the last 6 of the part before.
Target gene | amplicon | firefly reporter light, replicate 1 | firefly reporter light, replicate 2 | Renilla control light, replicate 1 | Renilla control light, replicate 2
CG30391 | DRSC21572 | 5.31e5 | 5.42e5 | 2.18e5 | 1.76e5
GlyT (Glycine transporter) | DRSC04512 | 2038 | 4747 | 659 | 1729
cnir (cornichon related) | DRSC00499 | 4748 | 10000 | 1524 | 4800
CG32448 | DRSC22657 | 6.41e5 | 5.80e5 | 2.32e5 | 140
CG14218 | DRSC19575 | 20833 | – | 10802 | –
CG18853 | DRSC06795 | 3261 | 5531 | 208 | 3060
Cpr65Eb (Cuticular protein 65Eb) | DRSC11026 | 2535 | 7916 | 1572 | 2902
Fer1 (48 related 1) | DRSC12507 | 22737 | – | 4086 | –
Fer1 (48 related 1) | DRSC12555 | 15363 | – | 2935 | –
Mat89Ba (Maternal transcript 89Ba) | DRSC14540 | 2744 | 5515 | 1421 | 1957
CG31528 | DRSC12003 | 1761 | – | 996 | –
CG31088 | DRSC13123 | 3285 | – | 1253 | –
Ttc7 (Tetratricopeptide repeat domain 7) | DRSC04836 | 9107 | – | 3133 | –
CG32301 | DRSC08613 | 6137 | – | 2653 | –
MESK2 (Misexpression suppressor of KSR 2) | DRSC04258 | 2233 | 6496 | 1185 | 2439
CG3347 | DRSC00597 | 2534 | 8381 | 1125 | 2960
Osi12 (Osiris 12) | DRSC12177 | 17304 | – | 2163 | –
CG12620 | DRSC02177 | 2118 | 6865 | 912 | 3707
CG30373 | DRSC05081 | 16086 | – | 9090 | –
RpL23A (Ribosomal protein L23A) | DRSC08694 | 17962 | – | 3750 | –
RpL23A (Ribosomal protein L23A) | DRSC22035 | 7.80e5 | 8.16e5 | 3.02e5 | 2.99e5
Rhp (Rhophilin) | DRSC20279 | 17472 | – | 7265 | –
pip (pipe) | DRSC11382 | 10417 | – | 4374 | –
Osi20 (Osiris 20) | DRSC12568 | 21108 | – | 4881 | –
Gen (XPG-like endonuclease) | DRSC09679 | 6161 | – | 2892 | –
CG11560 | DRSC09843 | 3293 | – | 1744 | –
Dpy-30L2 (Dpy-30-like 2) | DRSC08205 | 8036 | – | 3909 | –
mldr (mulder) | DRSC18100 | 28188 | – | 12134 | –
CG1801 | DRSC20556 | 28288 | – | 13926 | –
Leash | DRSC15617 | 14022 | – | 3042 | –
CG14005 | DRSC02337 | 9634 | – | 4077 | –
MFS3 (Major Facilitator Superfamily Transporter 3) | DRSC00664 | 3904 | 6709 | 1264 | 2544
Ilp7 (Insulin-like peptide 7) | DRSC17895 | 23642 | – | 14880 | –
Cyp9c1 (Cytochrome P450 9c1) | DRSC04607 | 8928 | – | 3638 | –
mRpL11 (mitochondrial ribosomal protein L11) | DRSC15482 | 12573 | – | 2240 | –
abs (abstrakt) | DRSC12372 | 7788 | – | 2696 | –
CG15456 | DRSC20527 | 17048 | – | 11799 | –
Cyp4p2 (Cytochrome P450 4p2) | DRSC07373 | 7765 | – | 2068 | –
nesd (nessun dorma) | DRSC02099 | 11853 | – | 3504 | –
CG11629 | DRSC03695 | 2819 | 7639 | 664 | 2120
CG15196 | DRSC19643 | 11552 | – | 5719 | –
Dis3l2 (Dis3 like 3'-5' exoribonuclease 2) | DRSC08496 | 8957 | – | 3209 | –
CG4497 | DRSC02754 | 9341 | – | 4291 | –
Rh7 (Rhodopsin 7) | DRSC10529 | 4868 | – | 2294 | –
CG31019 | DRSC13994 | 2233 | – | 973 | –
CG15130 | DRSC02430 | 2088 | 5779 | 682 | 2477
mid (midline) | DRSC02977 | 2923 | 7526 | 1178 | 1508
mid (midline) | DRSC21493 | 8.05e5 | 7.71e5 | 4.27e5 | 3.60e5
